Test: general procedure: Fmoc solid-phase peptide synthesis; Fmoc-Leu-Alko-resin; HBTU/DIPEA
Details: whole synthesis, scale 0.2 mmol

H-Cys(Npys)-Arg-Met-Phe-Pro-Asn-Ala-Pro-Tyr-Leu-OH
crude mass: 217 mg
isolated mass: 53 mg

From patent US11759509B2 (Sumitomo Pharma Co., Ltd., priority 2013, dated 2023)
